No constants are given. Whether binding was seen depends on the method and setting. For some assays here: In cells and extracts the contact can be indirect. Some results given as binding are weak or reduced against the parent protein; the word gives no strength. For some assays here: Where a sequence is shown, tags or fusion partners need not be part of it.

Protein sequences, listed by entry. Tags and fused reporters are not part of them. Residues count along the entry.
UniProt Q99873: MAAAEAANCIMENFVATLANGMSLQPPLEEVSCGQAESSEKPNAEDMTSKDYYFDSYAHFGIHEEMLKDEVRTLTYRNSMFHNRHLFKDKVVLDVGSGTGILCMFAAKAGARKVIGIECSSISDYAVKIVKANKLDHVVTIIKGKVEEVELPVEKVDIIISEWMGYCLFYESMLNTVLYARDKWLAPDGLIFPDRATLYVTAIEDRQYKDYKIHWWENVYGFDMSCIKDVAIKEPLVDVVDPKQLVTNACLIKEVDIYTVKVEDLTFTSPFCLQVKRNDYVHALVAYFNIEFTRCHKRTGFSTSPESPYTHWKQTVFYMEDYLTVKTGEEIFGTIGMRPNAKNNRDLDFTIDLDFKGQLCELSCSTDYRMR
UniProt Q04721, residues 26-2471: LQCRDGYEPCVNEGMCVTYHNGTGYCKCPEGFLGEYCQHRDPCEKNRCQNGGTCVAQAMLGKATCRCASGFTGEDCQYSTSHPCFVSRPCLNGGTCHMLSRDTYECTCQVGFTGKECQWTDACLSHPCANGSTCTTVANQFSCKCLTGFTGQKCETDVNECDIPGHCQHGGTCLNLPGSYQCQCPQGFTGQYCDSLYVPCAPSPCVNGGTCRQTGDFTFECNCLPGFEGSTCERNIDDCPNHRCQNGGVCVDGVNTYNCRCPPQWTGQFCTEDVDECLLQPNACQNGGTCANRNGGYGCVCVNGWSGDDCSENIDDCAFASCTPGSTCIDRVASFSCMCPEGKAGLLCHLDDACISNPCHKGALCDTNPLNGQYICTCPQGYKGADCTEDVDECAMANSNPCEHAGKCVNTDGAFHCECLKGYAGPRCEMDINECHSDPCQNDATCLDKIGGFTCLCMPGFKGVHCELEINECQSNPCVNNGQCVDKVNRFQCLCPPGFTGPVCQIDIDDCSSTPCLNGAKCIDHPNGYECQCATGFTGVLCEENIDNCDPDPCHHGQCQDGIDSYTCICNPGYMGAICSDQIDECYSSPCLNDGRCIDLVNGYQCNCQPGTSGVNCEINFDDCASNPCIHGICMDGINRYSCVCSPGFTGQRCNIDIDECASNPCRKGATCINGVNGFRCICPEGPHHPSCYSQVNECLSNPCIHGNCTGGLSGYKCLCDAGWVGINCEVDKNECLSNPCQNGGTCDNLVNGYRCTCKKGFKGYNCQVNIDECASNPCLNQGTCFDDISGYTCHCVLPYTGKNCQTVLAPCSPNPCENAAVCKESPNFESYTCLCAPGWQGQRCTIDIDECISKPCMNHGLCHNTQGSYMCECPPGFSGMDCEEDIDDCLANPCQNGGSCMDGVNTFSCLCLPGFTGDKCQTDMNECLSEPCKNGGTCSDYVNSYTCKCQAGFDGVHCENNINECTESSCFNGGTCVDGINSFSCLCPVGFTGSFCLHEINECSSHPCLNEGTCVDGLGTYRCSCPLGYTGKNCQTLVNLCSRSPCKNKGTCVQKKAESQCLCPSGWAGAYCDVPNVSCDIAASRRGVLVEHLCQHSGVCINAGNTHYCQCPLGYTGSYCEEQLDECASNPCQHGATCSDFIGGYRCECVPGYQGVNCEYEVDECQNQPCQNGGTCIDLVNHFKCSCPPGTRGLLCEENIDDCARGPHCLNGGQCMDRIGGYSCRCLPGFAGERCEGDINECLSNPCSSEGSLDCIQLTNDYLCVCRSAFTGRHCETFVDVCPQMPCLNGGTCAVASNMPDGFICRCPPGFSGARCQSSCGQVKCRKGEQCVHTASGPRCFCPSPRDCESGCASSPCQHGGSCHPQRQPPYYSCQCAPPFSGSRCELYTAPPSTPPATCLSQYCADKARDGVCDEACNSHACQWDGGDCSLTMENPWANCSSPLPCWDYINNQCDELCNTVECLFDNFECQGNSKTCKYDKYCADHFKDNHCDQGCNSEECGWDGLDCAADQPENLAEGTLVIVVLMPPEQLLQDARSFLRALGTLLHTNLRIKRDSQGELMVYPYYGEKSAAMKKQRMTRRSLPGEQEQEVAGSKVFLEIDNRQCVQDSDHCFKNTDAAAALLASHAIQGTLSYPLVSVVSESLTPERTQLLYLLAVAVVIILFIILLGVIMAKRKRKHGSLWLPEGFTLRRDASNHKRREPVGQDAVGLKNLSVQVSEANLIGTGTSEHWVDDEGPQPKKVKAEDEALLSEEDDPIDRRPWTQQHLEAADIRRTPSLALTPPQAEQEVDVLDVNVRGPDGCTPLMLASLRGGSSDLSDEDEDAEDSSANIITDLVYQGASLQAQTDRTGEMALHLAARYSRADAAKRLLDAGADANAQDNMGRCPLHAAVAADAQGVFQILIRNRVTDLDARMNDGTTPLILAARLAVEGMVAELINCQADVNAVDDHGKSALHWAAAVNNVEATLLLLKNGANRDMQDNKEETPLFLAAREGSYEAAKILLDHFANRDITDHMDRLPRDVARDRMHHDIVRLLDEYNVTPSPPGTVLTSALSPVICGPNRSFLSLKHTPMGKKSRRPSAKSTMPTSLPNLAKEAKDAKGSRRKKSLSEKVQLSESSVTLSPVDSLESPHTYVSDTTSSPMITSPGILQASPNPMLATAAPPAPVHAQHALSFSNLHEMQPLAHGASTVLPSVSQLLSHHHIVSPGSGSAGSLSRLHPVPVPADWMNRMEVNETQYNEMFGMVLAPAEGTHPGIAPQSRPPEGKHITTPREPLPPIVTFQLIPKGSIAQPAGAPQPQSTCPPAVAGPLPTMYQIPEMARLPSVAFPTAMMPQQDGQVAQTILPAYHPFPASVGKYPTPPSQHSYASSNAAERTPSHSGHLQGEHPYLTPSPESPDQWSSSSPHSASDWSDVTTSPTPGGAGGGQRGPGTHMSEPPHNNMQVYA

The target of test [1] is T1, MYC-tagged NUSAP1 (nucleolar and spindle-associated protein 1), wild type, in HEK293FT cells (human) (UniProt Q9BXS6).
T1 sequence: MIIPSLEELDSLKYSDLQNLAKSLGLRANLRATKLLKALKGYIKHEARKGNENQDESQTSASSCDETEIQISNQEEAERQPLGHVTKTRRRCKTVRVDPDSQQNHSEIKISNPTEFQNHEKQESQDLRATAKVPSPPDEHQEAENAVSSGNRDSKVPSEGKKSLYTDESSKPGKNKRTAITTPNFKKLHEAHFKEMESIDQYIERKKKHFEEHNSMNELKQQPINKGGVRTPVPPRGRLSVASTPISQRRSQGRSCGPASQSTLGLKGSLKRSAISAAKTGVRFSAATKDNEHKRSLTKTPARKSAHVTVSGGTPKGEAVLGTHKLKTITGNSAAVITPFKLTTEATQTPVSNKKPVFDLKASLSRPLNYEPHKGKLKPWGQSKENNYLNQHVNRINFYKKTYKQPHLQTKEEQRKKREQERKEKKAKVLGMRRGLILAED
Description: co-IP; HEK293FT cells expressing MYC-NUSAP1; MYC-tagged NUSAP1 immunoprecipitated, PRMT1 and PRMT5 detected by Western blotting.

In test [2] the target is T2, GST-tagged NUSAP1 wild type (GST-NUSAP1-WT) (human) (UniProt Q9BXS6).
T2 sequence: T1 sequence
As to the kind of experiment: pull-down; GST-NUSAP1 on glutathione-Sepharose beads incubated with purified His-tagged prey at 4 °C for 4 h in 20 mM Tris-HCl pH 7.5, 150 mM NaCl, 0.5% Triton X-100; washed with 300 mM NaCl; blots with anti-GST and anti-His; both purified.

In test [3] the target is T3, MYC-tagged NUSAP1, wild type, in BGC-823-5-FU-R and SGC-7901-5-FU-R cells (human) (UniProt Q9BXS6).
T3 sequence: T1 sequence
As to the kind of experiment: proximity ligation; fixed and permeabilised BGC-823-5-FU-R and SGC-7901-5-FU-R cells on coverslips, PLA probes, confocal microscopy; signal in the cytoplasm.

Test [4] concerns the target T3, MYC-tagged NUSAP1, wild type, in BGC-823-5-FU-R and SGC-7901-5-FU-R cells (human). As to the kind of experiment: co-IP; BGC-823-5-FU-R and SGC-7901-5-FU-R cells overexpressing MYC-NUSAP1 (with Flag-tagged N2ICD fragments in Fig. 6G); precipitation with anti-MYC antibody, Western blotting.
Test [5] concerns the target T4, NUSAP1, endogenous in 5-FU-resistant gastric cancer cells (human (endogenous in BGC-823-5-FU-R and SGC-7901-5-FU-R)) (UniProt Q9BXS6).
T4 sequence: T1 sequence
Description: proximity ligation; fixed and permeabilised BGC-823-5-FU-R and SGC-7901-5-FU-R cells on coverslips, PLA probes, confocal microscopy; signal in the cytoplasm.

Test [6] deals with T4, NUSAP1, endogenous in 5-FU-resistant gastric cancer cells (human (endogenous in BGC-823-5-FU-R and SGC-7901-5-FU-R)). Description: co-IP; endogenous proteins in BGC-823-5-FU-R and SGC-7901-5-FU-R cells; precipitation with anti-NUSAP1, anti-PRMT1, anti-PRMT5 or anti-Notch2 antibody, Western blotting.
The target in test [7] is PRMT1, endogenous in 5-FU-resistant gastric cancer cells (human (endogenous in BGC-823-5-FU-R and SGC-7901-5-FU-R)) (UniProt Q99873). The test is described as above.
Test [8] addresses Notch2, endogenous in 5-FU-resistant gastric cancer cells (human (endogenous in BGC-823-5-FU-R and SGC-7901-5-FU-R)) (UniProt Q04721). The description is as above.

Regarding “PRMT1, endogenous in HEK293FT cells (from UniProt Q99873 1-371) (enzyme)”, in test [1], the binding result is listed as “binds”.

Take “His-tagged PRMT1 (from UniProt Q99873 1-371) (enzyme)”: the binding result in test [2] is listed as “binds”.

As to “Notch2, endogenous in 5-FU-resistant gastric cancer cells (from UniProt Q04721 26-2471) (receptor)”, the binding result in test [3] and in test [4] was “binds” throughout.

As to “PRMT1, endogenous in 5-FU-resistant gastric cancer cells (from UniProt Q99873 1-371) (enzyme)”, the binding result in test [5] and in test [6] was “binds” throughout.

B1: NUSAP1, endogenous in 5-FU-resistant gastric cancer cells (protein, UniProt Q9BXS6 1-441)
chain: T1 sequence
Turning to B1, the binding result in test [7] and in test [8] was “binds” throughout.
